# Assay results

Source: PubChem BioAssay AID1159506 (NCATS, 2015).

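Luminescence from an EWS-FLI1 target-promoter (NR0B1) reporter, set against a CMV-promoter reporter, two days after silencing single genes in TC32 Ewing sarcoma cells.
Each siRNA was applied at 20 nM.
A z-score of the log NR0B1-over-CMV signal, less the median of siRNAs with the same seed; more negative means a stronger specific loss of the NR0B1 reporter.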

The strongest results of the screen are mostly left out here.
Sequences are the guide (antisense) strand, without overhang.

Sequence,gene,seed-corrected z-score
UACUAUCUUCCAUAUAUCG,PTK2,-0.4229
UUAUAUGGUCGAUAUCUGG,KLF17,-0.3844
AUUGAUAUCCAGAAAGUCC,ATP6V1B1,-0.2001
UCUACAACCAUUUAAGCUG,PAPOLG,0.02837
UAAUGUUCCCGUCUCGUGG,MDM4,0.6418
UCACUUUCAUUUGAAUCCC,TBC1D22A,0.02917
UUACAUUGGAUAACUCGCG,BBS9,1.338
UACUGGUUUAUUGUUCCCA,ACR,-0.07372
UAAUCGAACUCGCAGAUGC,CCDC27,-0.0005844
ACAGCUUUGAGUACAUCGC,MFI2,0.9586
UCAGAUGCAAAGACCAUUC,ZNF589,0.9499
UGAUUAAUGAGAAUGGUCU,RPL9P25,0.2248
UUGUCGUCUACUGAGAGAG,AKAP6,-0.2636
UCAGUUUGUAGCUCUCGCC,GUCA1B,0.2957
AAGGUUAGCACCAUGGACU,ATPAF2,1.842
AUGCUAUACAUGACACUCC,CYP26B1,0.05004
ACUGUUACCAGAAUUUGGG,PCDHGA6,0.115
UAUCCAAUAAGGUUAGAGG,ZNF10,-0.1752
UUAUGGAUCUAGUAGCUUC,CBWD5,0.3962
AUUAAACCCAUUAACAUGC,GNAS,2.587
UCACCUAACACUCCAUACU,C19orf38,0.244
GAAGUACAGACCAGCAUUC,YWHAE,-0.4108
AACUGCUCCAGUCACGGUC,IFNL3,-0.4092
UUGGGUCCCAAAUCGGUAG,SLC5A6,0.4
AACCGUUUAAUCACUCCUG,GNAI3,0.4371
UUCUUCAAGACAUUUAACC,GMNC,0.113
UUCAGGACUGUCUUGAGCC,TMEM8A,0.06978
AUCUUGAUGUCCAAUGACG,EEF1A1P15,-0.06261
UUUGUAUCGGUCAAAUCCC,TCTEX1D2,-1.165
AUCAUUAUGAGUAAGUUUC,OR4P4,-0.2108
CCUUGUCUAAAAACCCUAU,RPS2P8,0.6445
AGGCAUAUCAACAUCUUUG,GJC2,-1.304
UCCAUGUGAACCUUUGGGU,FAM131A,2.084
UUAGGUUGUGCUAAGAGUC,MED13L,2.445
UCGCUAUUUUGGAAGGUGG,LIFR,0.6969
UAAACAAACGCAACGCAGC,CXCL5,0.7738
UUUCGUCUGCCUUUUUGCG,DUX5,-0.6467
UUCGGAACCAGUUCUCUGC,ZNF512B,-0.1701
UUUUGAUCGGCUCCUCUUC,BHLHA9,0.09447
UGCCGAAUUAAAUUCGCCG,RBM48,0.09187
AAGGCGUCCAUGAUCUCGG,BOK,-0.5301
UCCUUGACCAAUUUCCAGC,DAPP1,-0.2412
UUCCAGGAAAUAUCGGUGG,RNASEH2A,-0.7489
UCUAUUACAAUAUAGGUGC,PTPRG,-0.02697
UCAGUAGACAUCGCGCAGG,LOC400706,-0.6025
UUUCGAUAAGGAAUAGGAG,MEIOC,0.5765
UGAUCGACAAAUGUUACCC,ACP1,0.348
UCGGAUUUAUGGUAAAUGC,PCDHA13,0.1735
UCUGGAAUAAACCUUUGCC,KLK10,-0.4458
UCAACAUACCCGUCCAUGC,EDDM3B,-0.1875
AGUGCUUCCAUUGAUGAUG,PLXNA3,0.3487
UAAUCAAAUCGAAACUUCG,B3GNT6,0.425
AUUAGUGUAGCAGCCUUCC,GIMAP4,-0.1994
UAAGUACGUAGCAUGUUCC,SACS,0.2751
UAUUAACCUUUGUAAAACC,CACNB2,-0.01319
UACCACAUAGCUUACACUC,ZNF878,0.303
UAAGCGAUUAAAAACCCGG,TTLL7,0.5398
AAUGUCCUAAGUGAAGUUC,ATP6V1G1,-1.294
UUCUGAACCGUGGAGGUGC,RS1,-0.4211
UAUAGUCCUUGCUUGGUUC,GPATCH2,-0.1617

The last 6 entries again:

{"sequence": "UAUUAACCUUUGUAAAACC", "gene": "CACNB2", "seed-corrected z-score": "-0.01319"}
{"sequence": "UACCACAUAGCUUACACUC", "gene": "ZNF878", "seed-corrected z-score": "0.303"}
{"sequence": "UAAGCGAUUAAAAACCCGG", "gene": "TTLL7", "seed-corrected z-score": "0.5398"}
{"sequence": "AAUGUCCUAAGUGAAGUUC", "gene": "ATP6V1G1", "seed-corrected z-score": "-1.294"}
{"sequence": "UUCUGAACCGUGGAGGUGC", "gene": "RS1", "seed-corrected z-score": "-0.4211"}
{"sequence": "UAUAGUCCUUGCUUGGUUC", "gene": "GPATCH2", "seed-corrected z-score": "-0.1617"}